PubChem BioAssay AID1259276 – Sanger Institute | 2017
Here is an unselected part of 794 reagents tested. In the full data, 24 (3%) got an active call. 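Calls come only from the siRNA-alone arm; drug synergy scores do not affect them.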 A number with no mark means an inactive call. Viability is capped at 1. Not all columns of the deposit are shown. Not given: the amount of reagent, the time to read-out.

Purpose: 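Kinome-wide search for kinases colon cancer cells need, and for drug partners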 (primary screen)
System: human C2BBe1 colorectal cancer cells
Reagent: siRNA pool against human genes
Challenge: DMSO vehicle, or one anchor drug: BYL719 at 1 µM, cetuximab at 5 µg/ml, or trametinib at 10 nM; exposure length not stated
Read-out: 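Cell viability as a fraction of non-targeting control wells, mean of replicates, also as a control-based robust z-score, plus a synergy score for each anchor drug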
Reading the numbers: viability robust z-score, siRNA alone and viability vs control, siRNA alone: higher = more viable cells after knock-down
Active means: 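Called essential when knock-down alone gives a viability robust z-score below -3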
Calls: active = essential (siRNA alone); inactive = no change (siRNA alone)

PKN1: viability robust z-score, siRNA alone = 0.472; viability vs control, siRNA alone = 1
KIT: viability robust z-score, siRNA alone = 0.472; viability vs control, siRNA alone = 1
EGFR: viability robust z-score, siRNA alone = -0.353; viability vs control, siRNA alone = 0.948
THNSL1: viability robust z-score, siRNA alone = 0.472; viability vs control, siRNA alone = 1
HK3: viability robust z-score, siRNA alone = 0.472; viability vs control, siRNA alone = 1
PIK3R5: viability robust z-score, siRNA alone = 0.472; viability vs control, siRNA alone = 1

Copied from the entries so far, 2 entries:
KIT: viability robust z-score, siRNA alone = 0.472; viability vs control, siRNA alone = 1
EGFR: viability robust z-score, siRNA alone = -0.353; viability vs control, siRNA alone = 0.948

Additional records:
ADCK1: viability robust z-score, siRNA alone = 0.472; viability vs control, siRNA alone = 1
WEE1: viability robust z-score, siRNA alone = -3.18 (active); viability vs control, siRNA alone = 0.77
TP53BP1: viability robust z-score, siRNA alone = 0.472; viability vs control, siRNA alone = 1
IRAK3: viability robust z-score, siRNA alone = 0.472; viability vs control, siRNA alone = 1
DAPK1: viability robust z-score, siRNA alone = 0.472; viability vs control, siRNA alone = 1
TEK: viability robust z-score, siRNA alone = -2.55; viability vs control, siRNA alone = 0.809
